Counter-ions that a name gives are not always drawn. Some of the results follow. The numbers are fractions of the control, whatever unit the source prints. Most values lie at the level of the controls, where differences are scatter.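 MIN6 is a mouse insulinoma beta-cell line that stably carries a lentiviral reporter in which the Pdx1 and Ins1 promoters each drive a nucleus-targeted fluorescent protein; cells were counted by automated imaging with a Hoechst nuclear stain. In the screen, a drug was a possible hit when its Ins1 promoter readout lay beyond two median absolute deviations from the DMSO controls while Pdx1 activity stayed near normal.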

The text below walks through data of the supplement of paper PMC4807443.

The test system of this experiment is MIN6. Description: % Pdx1+ Ins1+ (double-positive, mature) cells relative to DMSO control (fold of DMSO control); higher = more mature Ins1 promoter-active cells. As to conditions: 8.5 µM; 48 h; glucose 5 mM.
With `CCN(CC)C(=O)N[C@@H]1CC2c3cccc4[nH]cc(c34)CC2N(C)C1` (stereo partly drawn) [S(-)-terguride hydrogen maleate], the “% Pdx1+ Ins1+” value stood at 0.89.
Then `CC1=NCCc2c1[nH]c1cc(O)ccc21` [Harmalol hydrochloride dihydrate], with 0.985; and `C=C[C@H]1CN2CC[C@H]1C[C@H]2[C@H](O)c1ccnc2ccccc12` [(-)-Cinchonidine], with 0.88; and `COc1ccc2c(c1)[C@]13CCCC[C@@H]1[C@H](C2)N(C)CC3` [Dextromethorphan hydrobromide monohydrate], with 0.812.
Under `C[C@]12CC[C@@H](O)C[C@@H]1CC[C@@H]1[C@@H]2CC[C@]2(C)C(=O)CC[C@@H]12` [Androsterone] stands 0.94; under `CC1=CC(=O)C2=C(C)C[C@H](O)[C@@H]3[C@H](OC(=O)[C@H]3C)[C@H]12` [Austricine], 0.97; under `CNCC(O)c1ccc(O)cc1` (racemic) [(+,-)-Synephrine], 0.982.
As to `CC(Cc1ccc(O)cc1)NCC(O)c1cc(O)cc(O)c1` (stereo not drawn) [Fenoterol hydrobromide], the “% Pdx1+ Ins1+” value is 1.15.
Under `C=C[C@H]1CN2CC[C@H]1C[C@@H]2[C@@H](O)c1ccnc2ccccc12` [Cinchonine] stands 0.947; under `C=C1[C@@H]2CC[C@H]3[C@]4(C)C[C@H](O[C@@H]5O[C@H](CO)[C@@H](OS(=O)(=O)O)[C@H](OS(=O)(=O)O)[C@H]5OC(=O)CC(C)C)C[C@@H](C(=O)O)[C@H]4CC[C@]3(C2)[C@@H]1O` [Atractyloside potassium salt], 0.968; under `C1CCc2nnnn2CC1` [Pentylenetetrazole], 1.06.
Under `COc1cc2c(cc1O)[C@@H]1Cc3ccc(OC)c(O)c3CN1CC2` [Scoulerine] stands 0.776; under `COc1cc2c3cc1Oc1cc(ccc1O)C[C@@H]1c4c(cc(OC)c(O)c4Oc4cccc(c4)C[C@@H]3N(C)CC2)CC[N+]1(C)C` [Tubocurarine chloride pentahydrate (+)], 0.857.
On to `COc1ccc2[nH]c3c(c2c1)CCN=C3C` [Methoxy-6-harmalan], for which the “% Pdx1+ Ins1+” value amounted to 0.741.
For the compound `CC(C)[C@@]1(NC(=O)[C@@H]2C[C@@H]3c4cccc5[nH]cc(c45)C[C@H]3N(C)C2)O[C@@]2(O)[C@@H]3CCCN3C(=O)[C@H](Cc3ccccc3)N2C1=O` [Dihydroergocristine mesylate], the “% Pdx1+ Ins1+” value is 0.817.
Then `O=C1C=C2C=C[C@@H]3C[C@@]2(O1)[C@H]1CCCCN31` [Securinine], with 1.07.
Under `COc1ccn(C)c(=O)c1C#N` [Ricinine] stands 0.871; under `C[C@]12CCC(=O)C=C1CC[C@@H]1[C@@H]2C(=O)C[C@]2(C)C(=O)CC[C@@H]12` [Adrenosterone], 0.923.
